From the supplement of paper PMC10373366
Counter-ions that a name gives are not always drawn. Some of the results follow. Repeats are few or missing, and single values can be far off.

Tests used:
A2780 = assay: cell growth inhibition ratio vs untreated control (CCK8); higher = stronger inhibition of cell viability; details: 10 µM; 48 h
Protocol: (§1)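 Natural product library (Topscience) screened at 10 µM final concentration for 48 h on ovarian cancer A2780 cells and patient-derived ovarian cancer cells (PDC) in 96-well plates; viability read by CCK8 and reported as inhibition ratio (%) relative to untreated control. Single-dose primary screen.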

[1] = system: patient-derived ovarian cancer cells (PDC); assay: as above; details: 10 µM; 48 h
Protocol: as §1

Row | SMILES | cell growth inhibition ratio (A2780) [%] | cell growth inhibition ratio [1] [%]
1 | O=C(O)C=CC=Cc1ccccc1 [5-Phenyl-2,4-pentadienoic acid] | 5.02 | -5.68
2 | O=c1cc(-c2ccc(O)c(-c3c(O)cc(O)c4c(=O)cc(-c5ccc(O)cc5)oc34)c2)oc2cc(O)cc(O)c12 [Amentoflavone] | 20.1 | -12.4
3 | Oc1ccc2c(c1)OCO2 [Sesamol] | 10.6 | 5.25
4 | O=C([O-])[C@H](O)[C@@H](O)[C@H](O)[C@H](O)CO.[Na+] [Sodium gluconate] | 11.1 | -3.1
5 | Cc1nc(C)c(C)nc1C [Ligustrazine hydrochloride] | 10.5 | 0.8
6 | CCCN1C[C@H](C)[C@@H](O)[C@](C)(O)[C@@H](CC)OC(=O)[C@H](C)[C@@H](O[C@H]2C[C@@](C)(OC)[C@@H](O)[C@H](C)O2)[C@H](C)[C@@H](O[C@@H]2O[C@H](C)C[C@H](N(C)C)[C@H]2O)[C@](C)(O)C[C@H]1C [Gamithromycin] | 1.22 | 2.09
7 | COc1ccc(C(C)=O)c(O)c1 [Paeonol] | -4.3 | 4.31
8 | COc1ccc(-c2cc(=O)c3c(OC)c(OC)c(OC)c(OC)c3o2)cc1 [Tangeretin] | 32.5 | 18.6
9 | C/C=C(/C)C(=O)O[C@H]1[C@H](OC(C)=O)[C@@]2(CO)C(CC1(C)C)C1=CCC3[C@@]4(C)CCC(O[C@@H]5O[C@H](C(=O)O)[C@@H](O[C@@H]6O[C@H](CO)[C@@H](O)[C@H](O)[C@H]6O)[C@H](O)[C@H]5O[C@@H]5O[C@H](CO)[C@@H](O)[C@H](O)[C@H]5O)[C@](C)(CO)C4CC[C@@]3(C)[C@]1(C)C[C@H]2O.C/C=C(\C)C(=O)O[C@H]1[C@H](OC(C)=O)[C@@]2(CO)C(CC1(C)C)C1=CCC3[C@@]4(C)CCC(O[C@@H]5O[C@H](C(=O)O)[C@@H](O[C@@H]6O[C@H](CO)[C@@H](O)[C@H](O)[C@H]6O)[C@H](O)[C@H]5O[C@@H]5O[C@H](CO)[C@@H](O)[C@H](O)[C@H]5O)[C@](C)(CO)C4CC[C@@]3(C)[C@]1(C)C[C@H]2O (stereo partly drawn) [Escin] | 6.75 | -3.16
10 | O=c1cc(-c2ccc(O)cc2)oc2c([C@@H]3OC[C@H](O)[C@H](O)[C@H]3O)c(O)c([C@@H]3O[C@H](CO)[C@@H](O)[C@H](O)[C@H]3O)c(O)c12 | 9.67 | -13.3
11 | C/C=C1\C(CC(=O)OC[C@H]2O[C@@H](OCCc3ccc(O)cc3)[C@H](O)[C@@H](O)[C@@H]2O)C(C(=O)OC)=CO[C@H]1O[C@@H]1O[C@H](CO)[C@@H](O)[C@H](O)[C@H]1O (stereo partly drawn) [Nuezhenide] | 3.38 | 3.46
12 | C[C@H]1[C@H](C)CC[C@]2(C(=O)O)CC[C@]3(C)C(=CC[C@@H]4[C@@]5(C)C[C@@H](O)[C@H](O)[C@@](C)(CO)[C@@H]5[C@H](O)C[C@]43C)[C@H]12 [Madecassic acid] | 5.03 | -21
13 | CC(C)=CCC[C@](C)(O[C@@H]1O[C@H](CO)[C@@H](O)[C@H](O)[C@H]1O)[C@H]1CC[C@]2(C)[C@@H]1[C@H](O)C[C@@H]1[C@@]3(C)CC[C@H](O)C(C)(C)[C@@H]3[C@@H](O[C@@H]3O[C@H](CO)[C@@H](O)[C@H](O)[C@H]3O)C[C@]12C [Ginsenoside Rg1] | -0.713 | -8.84
14 | C[N+](C)(C)CC(O)CC(=O)[O-] (racemic) [DL-Carnitine] | 3.36 | -13.3
15 | COC(=O)c1cc(OC)c(O)c(OC)c1 [Methyl syringate] | 11.7 | 1.93
16 | O=c1cc(-c2ccccc2)oc2c(O)c(O)ccc12 [7,8-Dihydroxyflavone] | -3.13 | 9.29
17 | O=C1C[C@@H](c2ccc(O)cc2)Oc2cc(O)ccc21 [Liquiritigenin] | -33.7 | -3.53
18 | O=C(O[C@@H]1Cc2c(O)cc(O)cc2O[C@@H]1c1ccc(O)c(O)c1)c1cc(O)c(O)c(O)c1 [(-)-Epicatechin gallate] | 3.42 | -5.39
19 | CCOC(=O)c1ccc(O)cc1 [Ethylparaben] | 10.2 | 12.5
20 | C[C@@H]1O[C@@H](OC[C@H]2O[C@@H](OCCc3ccc(O)c(O)c3)[C@H](O)[C@@H](O)[C@@H]2OC(=O)/C=C/c2ccc(O)c(O)c2)[C@H](O)[C@H](O)[C@H]1O [Forsythoside A] | 20.1 | -13.3
21 | CN1c2ccccc2C(=O)N2CCc3c([nH]c4ccccc34)C21 (stereo in doubt) [Evodiamine] | 70.1 | 14.1
22 | CCc1c2c(nc3ccc(O)cc13)-c1cc3c(c(=O)n1C2)COC(=O)[C@]3(O)CC | 86.2 | 72.9
23 | O=c1ccc2cc(O)c(O)cc2o1 [Esculetin] | 4.61 | 7.95
24 | CCc1c2c(nc3ccc(OC(=O)N4CCC(N5CCCCC5)CC4)cc13)-c1cc3c(c(=O)n1C2)COC(=O)[C@]3(O)CC [Irinotecan] | 7.14 | 14

Row | SMILES | cell growth inhibition ratio (A2780) [%] | cell growth inhibition ratio [1] [%]
25 | Nc1ncnc2c1ncn2[C@@H]1O[C@H](COP(=O)(O)OP(=O)(O)O)[C@@H](O)[C@H]1O | 25.9 | -3.38
26 | COC(=O)[C@@H]1[C@H]2C[C@H]3c4[nH]c5ccccc5c4CCN3C[C@@H]2CC[C@@H]1O [Yohimbine hydrochloride] | -1.45 | 7.47
27 | CO[C@H]1O[C@@H]2O[C@@]3(C)CC[C@H]4[C@H](C)CC[C@@H]([C@H]1C)[C@@]24OO3 [Artemether] | -24.8 | -8.05
28 | O=C1c2cccc(O)c2C(=O)c2c(O)cccc21 [Antrapurol] | 22.6 | 21
29 | CC1(C)CC[C@]2(C(=O)O[C@@H]3O[C@H](CO[C@@H]4O[C@H](CO)[C@@H](O)[C@H](O)[C@H]4O)[C@@H](O)[C@H](O)[C@H]3O)CC[C@]3(C)C(=CC[C@@H]4[C@@]5(C)CC[C@H](O[C@@H]6OC[C@H](O)[C@H](O)[C@H]6O)[C@@](C)(CO)[C@@H]5CC[C@]43C)[C@@H]2C1 [Asperosaponin Ⅵ] | 25.7 | -4.51
30 | COc1cc(/C=C/c2ccc(O)cc2)cc(OC)c1 [Pterostilbene] | 0.494 | 5.13
31 | CC(C)=C[C@H]1C[C@](C)(O)[C@@H]2[C@H]3CC[C@@H]4[C@@]5(C)CC[C@H](O[C@@H]6OC[C@H](O)[C@H](O[C@@H]7O[C@H](CO)[C@@H](O)[C@H](O)[C@H]7O[C@@H]7OC[C@@H](O)[C@H](O)[C@H]7O)[C@H]6O[C@@H]6O[C@@H](C)[C@H](O)[C@@H](O)[C@H]6O)C(C)(C)[C@@H]5CC[C@@]4(C)[C@@]34CO[C@@]2(C4)O1 [Jujuboside B] |  | -0.39
32 | COC(=O)c1ccc(O)c(O)c1 [Methyl protocatechuate] | -16.7 | -10.1
33 | COc1ccc(CCO[C@@H]2O[C@H](CO[C@@H]3OC[C@H](O)[C@H](O)[C@H]3O)[C@@H](OC(=O)/C=C/c3ccc(O)c(OC)c3)[C@H](O[C@@H]3O[C@@H](C)[C@@H](O)[C@@H](O)[C@H]3O)[C@H]2O)cc1O [Angoroside C] |  | -6.35
34 | CC(C)CCC[C@@H](C)[C@H]1CC[C@H]2[C@@H]3CC=C4C[C@@H](O)CC[C@]4(C)[C@H]3CC[C@]12C [Cholesterol] | 11.3 | 5.92
35 | Cn1c(=O)c2c(ncn2C)n(C)c1=O [Caffeine] | 16.6 | 0.3
36 | CC(C)=CCC[C@](C)(O[C@@H]1O[C@H](CO)[C@@H](O)[C@H](O)[C@H]1O)[C@H]1CC[C@]2(C)[C@@H]1[C@H](O)C[C@@H]1[C@@]3(C)CC[C@H](O)C(C)(C)[C@@H]3[C@@H](O)C[C@]12C [Ginsenoside F1] | 20.2 | 5.53
37 | C=Cc1c(C)c2cc3[nH]c(cc4nc(cc5nc(cc1[nH]2)C(C)=C5CCC(=O)O)C(CCC(=O)O)=C4C)c(C)c3C=C [Protoporphyrin IX] | 21.8 | 3.09
38 | CCCCCCCCCC[C@H](C(=O)O)[C@]1(C(=O)O)CCC(=O)O1 [Spiculisporic Acid] | 6.14 | 5.93
39 | COc1cc2ccc(=O)oc2c(O)c1O [Fraxetin] | -6.34 | -43.4
40 | CC1(C)CC[C@]2(C(=O)O[C@@H]3O[C@H](CO)[C@@H](O)[C@H](O)[C@H]3O)CC[C@]3(C)C(=CC[C@@H]4[C@@]5(C)CC[C@H](O[C@@H]6O[C@H](C(=O)O)[C@@H](O)[C@H](O)[C@H]6O[C@@H]6O[C@H](CO)[C@@H](O)[C@H](O)[C@H]6O)C(C)(C)[C@@H]5CC[C@]43C)[C@@H]2C1 [GinsenosideRo] | 6.82 | -5.95
41 | C[C@H]1[C@H](C)CC[C@]2(C(=O)O)CC[C@]3(C)C(=CC[C@@H]4[C@@]5(C)CC[C@H](O)C(C)(C)[C@@H]5CC[C@]43C)[C@H]12 [Ursolic acid] | -0.0364 | -10.1
42 | C[C@@]12C[C@@]3(O)O[C@@H](O1)[C@]1(COC(=O)c4ccccc4)[C@H]3C[C@@]12O[C@@H]1O[C@H](CO)[C@@H](O)[C@H](O)[C@H]1O [Paeoniflorin] |  | 0.254
43 | C=C(C)[C@@H]1CC[C@]2(C=O)CC[C@]3(C)[C@H](CC[C@@H]4[C@@]5(C)CC[C@H](O)C(C)(C)[C@@H]5CC[C@]43C)[C@@H]12 [Betulinaldehyde] | 3.86 | 15.4
44 | C[C@H](CCC(=O)O)[C@H]1CC[C@H]2[C@@H]3CC[C@@H]4C[C@H](O)CC[C@]4(C)[C@H]3CC[C@]12C [Lithocholic acid] | 6.16 | -15.4
45 | Oc1nc(O)c2nc(O)[nH]c2n1 | -0.257 | -22.4
46 | COc1c2occc2cc2ccc(=O)oc12 [8-Methoxypsoralen] | 2.14 | -5.15
47 | Oc1ccc(/C=C/c2cc(O)cc(O)c2)cc1 [Resveratrol] | 39.4 | 15.2
48 | CC(=O)O[C@H]1C[C@@]2(C)[C@@H](C[C@@H](O)[C@H]3[C@@]4(C)CC[C@@H](O)[C@@H](C)[C@@H]4CC[C@@]32C)/C1=C(\CCC=C(C)C)C(=O)O [Fusidine] | -0.435 | 4.65

Looked up by structure from the list above (two):
Row | SMILES | cell growth inhibition ratio (A2780) [%] | cell growth inhibition ratio [1] [%]
39 | COc1cc2ccc(=O)oc2c(O)c1O [Fraxetin] | -6.34 | -43.4
31 | CC(C)=C[C@H]1C[C@](C)(O)[C@@H]2[C@H]3CC[C@@H]4[C@@]5(C)CC[C@H](O[C@@H]6OC[C@H](O)[C@H](O[C@@H]7O[C@H](CO)[C@@H](O)[C@H](O)[C@H]7O[C@@H]7OC[C@@H](O)[C@H](O)[C@H]7O)[C@H]6O[C@@H]6O[C@@H](C)[C@H](O)[C@@H](O)[C@H]6O)C(C)(C)[C@@H]5CC[C@@]4(C)[C@@]34CO[C@@]2(C4)O1 [Jujuboside B] |  | -0.39
